{"source": "the supplement of paper PMC8256030", "note": "Where “and” joins values, the source holds several entries; their conditions need not be identical. Equal values may be shown once. The list shows a part of the results. Repeats in this data set agree poorly, so a single value says little.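 HEK293T cells were given each compound shortly before transfection with a reporter in which red mCherry is followed by the SARS-CoV-2 frameshift element and then GFP in the −1 frame, so GFP appears only after frameshifting.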", "data": [{"test_system": "HEK293T", "assay": "percent viability (nuclei count) relative to control; higher = more viable cells", "settings": "10 µM; 24 h", "values": [{"smiles": "C[C@]12CCC(=O)C=C1C=C[C@@H]1[C@@H]2CC[C@@]2(C)[C@H]1CC[C@@]2(O)CCC(=O)O", "percent viability": "160%"}, {"smiles": "CN1C2CC(OC(=O)C(CO)c3ccccc3)CC1C(O)C2", "note": "(stereo unspecified)", "percent viability": "261%"}, {"smiles": "COc1cc([C@@H]2c3cc4c(cc3[C@H](O)[C@H]3COC(=O)[C@H]23)OCO4)cc(OC)c1OC", "percent viability": "18.7%"}, {"smiles": "CCCN1CCO[C@@H]2c3cc(O)ccc3CC[C@H]21", "note": "[naxagolide]", "percent viability": "370%"}, {"smiles": "C#Cc1cncc([C@@H]2CCCN2C)c1", "note": "[altinicline]", "percent viability": "304%"}, {"smiles": "CC[C@@]1([C@@H]2O[C@@H]([C@H]3O[C@@](O)(CO)[C@H](C)C[C@@H]3C)C[C@@H]2C)CC[C@H]([C@]2(C)CC[C@]3(C[C@H](O)[C@@H](C)[C@@H]([C@@H](C)[C@@H](OC)[C@H](C)C(=O)O)O3)O2)O1", "percent viability": "519%"}, {"smiles": "OCCN(CCO)CCO", "note": "[trolamine]", "percent viability": "247%"}, {"smiles": "Nc1nc(N)nc(Nc2ccc([As]3SCC(CO)S3)cc2)n1", "note": "(stereo unspecified) [melarsoprol]", "percent viability": "148%"}, {"smiles": "C1CCc2nnnn2CC1", "note": "[pentetrazol]", "percent viability": "150%"}, {"smiles": "C[C@@H]1O[C@@H](O[C@H]2C[C@@H](O)[C@]3(CO)[C@H]4[C@H](O)C[C@]5(C)[C@@H](C6=CC(=O)OC6)CC[C@]5(O)[C@@H]4CC[C@]3(O)C2)[C@H](O)[C@H](O)[C@H]1O", "percent viability": "2.97%"}, {"smiles": "CO[C@@]12CC[C@@]3(C[C@@H]1[C@](C)(O)C(C)(C)C)[C@H]1Cc4ccc(O)c5c4[C@@]3(CCN1CC1CC1)[C@H]2O5", "note": "[Buprenex]", "percent viability": "256%"}, {"smiles": "CN1C(=O)C(O)N=C(c2ccccc2)c2cc(Cl)ccc21", "note": "(stereo unspecified) [temazepam]", "percent viability": "34.8%"}, {"smiles": "O=C(CCCN1CCC(n2c(=O)[nH]c3ccccc32)CC1)c1ccc(F)cc1", "note": "[benperidol]", "percent viability": "208%"}, {"smiles": "CC(C)NCC(O)c1cccc(O)c1", "note": "(stereo unspecified) [metaterol]", "percent viability": "325%"}, {"smiles": "CCCOC(=O)[C@H]1[C@@H](OC(=O)c2ccccc2)C[C@@H]2CC[C@H]1N2C", "percent viability": "76.3%"}, {"smiles": "CCC(=O)O[C@H]1CC[C@H]2[C@@H]3CCC4=CC(=O)CC[C@]4(C)[C@H]3CC[C@]12C", "percent viability": "139%"}, {"smiles": "O=C(NC(=O)c1c(F)cccc1F)Nc1ccc(Cl)c(Oc2ncc(C(F)(F)F)cc2Cl)c1", "note": "[fluazuron]", "percent viability": "130%"}, {"smiles": "Nc1ncnc2c1ncn2CCOCP(=O)(O)O", "note": "[adefovir]", "percent viability": "177%"}, {"smiles": "CC(C)(N)CC12CC3CC(CC(C3)C1)C2", "note": "[somantadine]", "percent viability": "181%"}, {"smiles": "CC(=O)O[C@H]1C[C@H](O[C@H]2[C@@H](O)C[C@H](O[C@H]3[C@@H](O)C[C@H](O[C@H]4CC[C@@]5(C)[C@H](CC[C@@H]6[C@@H]5C[C@@H](O)[C@]5(C)[C@@H](C7=CC(=O)OC7)CC[C@]65O)C4)O[C@@H]3C)O[C@@H]2C)O[C@H](C)[C@H]1O[C@@H]1O[C@H](CO)[C@@H](O)[C@H](O)[C@H]1O", "note": "[lanatoside C]", "percent viability": "4.03%"}, {"smiles": "CCC1(c2cccc(O)c2)CCCCN(C)C1", "note": "(stereo unspecified) [meptazinol]", "percent viability": "143%"}, {"smiles": "COc1ccc2c3c1O[C@H]1[C@@H](O)C=C[C@H]4[C@@H](C2)NCC[C@@]341", "note": "[norcodeine]", "percent viability": "202%"}, {"smiles": "CCN(CC)C(C)C(=O)c1ccccc1", "note": "(stereo unspecified) [amfepramone]", "percent viability": "217%"}, {"smiles": "CNC1(c2ccccc2Cl)CCCCC1=O", "note": "(stereo unspecified) [ketamine]", "percent viability": "323%"}, {"smiles": "Cc1cccc(C(C)c2c[nH]cn2)c1C", "note": "(stereo unspecified) [medetomidine]", "percent viability": "98.6%"}, {"smiles": "C[N+](C)(C)CCCCCCCCCC[N+](C)(C)C", "note": "[decamethonium bromide]", "percent viability": "214% and 123%"}, {"smiles": "CC[C@@H](CO)NC(=O)[C@@H]1C=C2c3cccc4[nH]cc(c34)C[C@H]2N(C)C1", "note": "[methylergometrine]", "percent viability": "135%"}, {"smiles": "COC(=O)c1cncn1C(C)c1ccccc1", "note": "(stereo unspecified) [metomidate]", "percent viability": "200%"}, {"smiles": "CNC(=O)NC(O)C(Cl)(Cl)Cl", "note": "(stereo unspecified) [mecloralurea]", "percent viability": "198%"}, {"smiles": "CNCC(O)c1cc(OC)c(O)c(OC)c1", "note": "(stereo unspecified) [dimetofrine]", "percent viability": "356%"}, {"smiles": "C[C@]1(O)CC[C@H]2[C@@H]3CCC4=CC(=O)CC[C@]4(C)[C@@]3(F)[C@@H](O)C[C@@]21C", "note": "[fluoxymesterone]", "percent viability": "120%"}, {"smiles": "N[C@@H](Cc1ccc(N(CCCl)CCCl)cc1)C(=O)O", "note": "[Melphalan]", "percent viability": "179%"}, {"smiles": "Cc1nn(C)c2c1C(c1ccccc1F)=NCC(=O)N2C", "note": "[zolazepam]", "percent viability": "115%"}, {"smiles": "CC(Cc1ccccc1)NCCC#N", "note": "(stereo unspecified) [fenproporex]", "percent viability": "66.8%"}, {"smiles": "C[N+]1(C)[C@@H]2CC[C@H]1C[C@@H](OC(=O)C(CO)c1ccccc1)C2", "note": "(stereo partly specified) [atropine methonitrate]", "percent viability": "199%"}, {"smiles": "CCC1(c2ccccc2)C(=O)NC(=O)N(C)C1=O", "note": "(stereo unspecified) [methylphenobarbital]", "percent viability": "190%"}]}]}
